Assay results: PubChem BioAssay AID504444 (National Center for Advancing Translational Sciences (NCATS), 2011)
Among all 360,000 compounds or so, about 7,500 (2.1%) were called active. The shares of active, inactive and inconclusive entries below differ from those in the screen. Calls follow the shape of the dose curve; as a rule, active = well fitted inhibition curve with a large enough effect; inconclusive = small, poorly fitted or top-dose-only effect, or effect the other way; inactive = flat fitted curve, though single readings scatter. A potency beside an inconclusive call is a rough fit, not a confirmed value.

Assay: Nrf2 qHTS screen for inhibitors; also: nearly all actives have a fitted effect of over 60% in size
Conditions: A549 ARE-Fluc reporter, luciferase luminescence, 18-24 h; series mostly up to 46 µM
Method in brief: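 Two sequential reads on A549 ARE_Fluc cells exposed to compound for 18-24 h: a CellTiter-Fluor fluorescence read for viability, then a luciferase luminescence read for Nrf2/ARE activity.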
Potency is read from the fitted curve at half-maximal effect.

Row | SMILES | Potency
1 | O=C(NCC(=O)N1CCN(c2ccccc2F)CC1)c1ccco1 | inconclusive: 29.1 µM [activator, single point]
2 | CCOC(=O)c1c(N2C(=O)Nc3ccccc3N2O)sc2c1CCCC2 | inconclusive: 1.84 µM [falling, partial curve, poor fit]
3 | Cc1ccc(NC(=O)CN(C)C(=O)COC(=O)c2ccc(Cl)cc2O)cc1 | inactive
4 | COC1C=COC2(C)Oc3c(C)c(O)c4c(O)c(c(CN5CCN(C)CC5)c(O)c4c3C2=O)NC(=O)C(C)=CC=CC(C)C(O)C(C)C(O)C(C)C(OC(C)=O)C1C (configuration not stated) | inactive
5 | COc1ccccc1CNC(=O)C(=O)Nc1nccs1 | inconclusive: 18.4 µM [activator, single point]
6 | COc1cc(/C=N/N(C)c2ccccc2)cc(Cl)c1O | inconclusive: 20.6 µM [activator, partial curve]
7 | Cc1c(Cl)cccc1NC(=O)Nc1ccc(C(=O)N2CCCC2)cc1 | inconclusive: 29.1 µM [falling, single point]
8 | CCOC(=O)c1c(C)[nH]c(C(=O)OCC(=O)NC2(C#N)CCCCC2)c1C | inconclusive: 29.1 µM [falling, single point]
9 | CCn1nnnc1SCC(=O)N1CCCc2ccccc21 | inconclusive: 29.1 µM [activator, single point]
10 | CN1c2ccc(Cl)cc2-c2nc(SCC(=O)NCc3ccc(F)cc3)ncc2S1(=O)=O | inconclusive: 29.1 µM [activator, single point]
11 | Cc1ccsc1C(=O)NCCc1ccco1 | inconclusive: 9.2 µM [activator, partial curve]
12 | Nc1nc(NCCN2CCOCC2)nc(NCc2ccccc2)c1[N+](=O)[O-] | inconclusive: 29.1 µM [falling, partial curve, poor fit]
13 | COc1cc(/C=C2/NC(=O)N(c3cccc(Cl)c3)C2=O)ccc1O | inconclusive: 23.1 µM [activator, partial curve]
14 | COc1ccc(-n2c(NNC(C)=O)nc3sc4c(c3c2=O)CCCC4)cc1 | inconclusive: 16.4 µM [falling, partial curve, poor fit]
15 | O=C(N/N=C/c1cccnc1)c1cc(O)c(O)c(O)c1 | inconclusive: 10.3 µM [falling, partial curve]
16 | CCOc1ccccc1NC(=O)c1ccc(NC(=O)c2ccco2)cc1 | active: 23.1 µM
17 | Cc1ccc(/C=N/NC(=O)CSc2nc3ccccc3c(=O)n2-c2ccccc2C)s1 | inconclusive: 16.4 µM [falling, single point]
18 | CCc1ccc(C(=O)Nc2cccnc2Oc2ccc(Cl)cc2)cc1 | inconclusive: 23.1 µM [activator, single point]
19 | N/C(=N\OC(=O)c1cccc([N+](=O)[O-])c1)c1ccccn1 | inconclusive: 4.61 µM [activator, partial curve]
20 | Cc1cc(Nc2ccc(Br)cc2)n2nc(-c3ccccc3C)nc2n1 | inconclusive: 32.6 µM [falling, single point]
21 | Nc1ccc2[nH]c(=S)[nH]c2c1 | inconclusive: 23.1 µM [activator, partial curve, poor fit]
22 | Cc1ccc(NS(=O)(=O)c2ccc3c(c2)N(C)CCO3)cc1C | inconclusive: 18.4 µM [falling, single point]
23 | O=C(COC(=O)CCSc1ccc(Cl)cc1)NCCc1ccccc1 | inconclusive: 29.1 µM [activator, single point]

Row | SMILES | Potency
24 | CC(=O)Nc1ccc(NC(=O)CC2(CC(=O)N3CCOCC3)CCCC2)cc1 | inconclusive: 5.17 µM [activator, partial curve, poor fit]
25 | COc1cc(Cn2c(=O)oc3ccc(C)cc32)ccc1OCCC(C)C | active: 20.6 µM
26 | O=S(=O)(c1ccc(F)cc1)N1CCN(Cc2ccccc2C(F)(F)F)CC1 | inconclusive: 0.517 µM [falling, full curve, poor fit]
27 | Cc1[nH]c(=O)[nH]c(=O)c1/C=C/C(=O)OCC(C)C | inactive
28 | Cc1[nH]c2ccccc2c1N=Nc1cccc(C(=O)O)c1 | inconclusive: 14.6 µM [activator, partial curve, poor fit]
29 | Cc1cc(C)cc(OCC(=O)Nc2cccc(S(=O)(=O)NC3=NCCC3)c2)c1 | inconclusive: 0.146 µM [falling, full curve, poor fit]
30 | Cn1c(SCC(=O)N2c3ccccc3Sc3ccccc32)nc2ccccc21 | inconclusive: 9.2 µM [falling, partial curve]
31 | CCN(CC)CCCNc1nc2cc(OC)c(OC)cc2c2nc(-c3ccccc3)nn12 | inactive
32 | Cc1cc(C)cc(Nc2cc(=O)n(C3CCCCC3)c(=O)[nH]2)c1 | inconclusive: 29.1 µM [falling, single point]
33 | COc1ccc(OC)c(-c2csc(NC(=O)CSc3ccc(Br)cc3)n2)c1 | inconclusive: 23.1 µM [falling, single point]
34 | O=c1[nH]c2cc([N+](=O)[O-])ccc2c2ccccc12 | inconclusive: 2.59 µM [falling, full curve]
35 | CC(C)C[C@H](NC(=O)c1[nH]cnc1C(=O)N[C@H](C)c1ccccc1)C(=O)OC(C)(C)C | inconclusive: 29.1 µM [falling, single point]
36 | O=C(COC(=O)c1ccc(Cl)c(Cl)c1)Nc1cccnc1Cl | inactive
37 | O=C(CNC(=O)c1ccc(Cl)cc1)OCc1cc(=O)n2nc(C3CC3)sc2n1 | inconclusive: 23.1 µM [activator, single point]
38 | C[C@H](O)[C@@H](C(=O)N1CCN(C(=O)OC(C)(C)C)CC1)n1cc(CCCCNC(=O)OC(C)(C)C)nn1 | inactive
39 | O=C(N/N=C/c1cc(Cl)cc([N+](=O)[O-])c1O)NC12CC3CC(CC(C3)C1)C2 | inconclusive: 23.1 µM [falling, single point]
40 | Fc1ccccc1-c1nnc2n1N=C(c1ccc(OC(F)F)c(OCC3CC3)c1)CS2 | inactive
41 | O=C1c2ccccc2C(=O)N1CCCCN(C(=O)c1cc([N+](=O)[O-])cc([N+](=O)[O-])c1)c1ccc(Cl)cc1 | active: 23.1 µM
42 | Cc1ccc(NC(=O)CSc2ccccc2)cc1S(=O)(=O)N1CCOCC1 | inactive
43 | CCOc1ccccc1NC(=O)C1CCCN(S(=O)(=O)c2ccccc2)C1 (configuration not stated) | inconclusive: 25.9 µM [falling, partial curve, poor fit]
44 | FC(F)(F)c1cc(Oc2ccccc2Cl)nc(-c2ccccn2)n1 | inconclusive: 23.1 µM [falling, single point]
45 | Cc1ccnc(SCC(=O)c2ccc(Br)cc2)c1C#N | inconclusive: 2.91 µM [activator, single point]
46 | COc1cccc(/C=N/NC(=O)c2oc3nc(-c4ccccc4)cc(-c4ccco4)c3c2N)c1 | inconclusive: 29.1 µM [falling, single point]

Four compounds picked at random from those above, as already listed:
Row | SMILES | Potency
23 | O=C(COC(=O)CCSc1ccc(Cl)cc1)NCCc1ccccc1 | inconclusive: 29.1 µM [activator, single point]
13 | COc1cc(/C=C2/NC(=O)N(c3cccc(Cl)c3)C2=O)ccc1O | inconclusive: 23.1 µM [activator, partial curve]
2 | CCOC(=O)c1c(N2C(=O)Nc3ccccc3N2O)sc2c1CCCC2 | inconclusive: 1.84 µM [falling, partial curve, poor fit]
33 | COc1ccc(OC)c(-c2csc(NC(=O)CSc3ccc(Br)cc3)n2)c1 | inconclusive: 23.1 µM [falling, single point]

Further entries follow.

Row | SMILES | Potency
47 | O=C(Nc1ccccc1Cl)C1CCCN(S(=O)(=O)c2cccc3cccnc23)C1 (configuration not stated) | inactive
48 | CCN(CC)c1ccc(C=Nc2ccc(OC)c(S(=O)(=O)N3CCOCC3)c2)c(O)c1 | inactive
49 | COc1ccccc1NC(=O)c1cc2cc(Br)ccc2cc1O | inactive
50 | Cn1c(SCC(=O)N2CCCC2)nnc1-c1cccs1 | inconclusive: 2.31 µM [activator, full curve]
51 | CCC1CSC(Nc2ccc(C(=O)/C=C/c3ccc(Oc4ccccc4)cc3)cc2)=N1 (configuration not stated) | inconclusive: 18.4 µM [falling, single point]
52 | O=C(Cc1ccc(Cl)cc1)Nc1ccccc1C(=O)Nc1ccc(C(=O)O)cc1 | inconclusive: 23.1 µM [falling, single point]
53 | CC1CCCC(NC(=O)c2ccc3c(c2)OCCO3)C1C (configuration not stated) | inconclusive: 8.2 µM [activator, partial curve, poor fit]
54 | Cc1cc(-c2ccccc2)n(-c2cc(N/N=C/c3ccccc3O)ncn2)n1 | inactive
55 | CC1=C(CO)C(=O)OC([C@@H](C)C2CC[C@H]3C4C[C@H]5O[C@]56[C@@H](O)C=CC(=O)[C@]6(C)C4CC[C@]23C)C1 (some centres not stated) | active: 13 µM
56 | Cc1nc(N2CCOCC2)c2c(C(=O)N3CCN(c4ccccc4F)CC3)c(C)oc2n1 | inactive
57 | CCn1c(=O)n(CC)c2cc(S(N)(=O)=O)c(C)cc21 | inconclusive: 29.1 µM [falling, partial curve, poor fit]
58 | Cc1ccc(CN2COc3ccc4c(C)cc(=O)oc4c3C2)cc1 | inactive
59 | Cc1ccc(N2CCN(C(=O)c3cn(CC4CCCCC4)nn3)C(C)C2)cc1 (configuration not stated) | inactive
60 | Clc1ccsc1-c1ccnc(-n2cccc2)n1 | inconclusive: 11.6 µM [activator, partial curve]
61 | CC1(C)OC(=O)C2(Cc3c(F)cccc3N3CCCC32)C(=O)O1 (configuration not stated) | inactive
62 | O=C(NCc1ccc(Cl)cc1)c1cc2c(s1)-c1ccccc1SC2 | inconclusive: 29.1 µM [falling, single point]
63 | COc1ccc(-c2nc3c(c(SCC(=O)Nc4cccc(O)c4)n2)Cc2c(CO)cnc(C)c2O3)cc1 | inactive
64 | Cc1ccc(C)c(N=Cc2c(O)c3ccccc3oc2=O)c1 | inactive
65 | COC(=O)CC1=C(C(=O)OC)[C@@H](c2ccccc2[N+](=O)[O-])C(C#N)=C(N)O1 | inconclusive: 23.1 µM [falling, single point]
66 | CC(C)C(=O)N1CCN(c2ccccc2NC(=S)NC(=O)c2cccs2)CC1 | inconclusive: 2.91 µM [falling, single point]
67 | O=C(COC(=O)c1cc([N+](=O)[O-])ccc1N1CCOCC1)Nc1cccc(F)c1 | inconclusive: 3.66 µM [falling, full curve, poor fit]
